Reference: PubChem BioAssay AID504774 (Drosophila RNAi Screening Center, 2011)
In all, the deposit lists about 23,000 reagents; below is a random part of those that have a named target and a result. 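Values are quantile-normalised luminescence on an arbitrary scale; higher means more cells surviving MMS.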 Reagents against one gene are numbered here. Not all columns of the deposit are shown.

- Screen: 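Genes required for cells to withstand methyl methanesulphonate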 (primary screen)
- Cells: Drosophila Kc167 cells
- Reagent: long dsRNA against Drosophila genes, about 0.25 µg dsRNA per well
- Duration: about 6 days: 3 days knock-down, then 3 days with or without MMS
- Challenge: methyl methanesulphonate 0.004% (w/v) for 3 days after knock-down
- Read-out: 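Viability in wells given MMS, read as ATP luminescence, normalised by quantiles plate by plate and averaged across replicates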
- Scale: mean viability with MMS and viability with MMS: higher = more surviving cells after MMS

What is on record for wap?
mean viability with MMS: 3.50e6; viability with MMS, replicate 1: 4.00e6

With Lamtor5, how do the results read?
mean viability with MMS: 3.46e6; viability with MMS, replicate 1: 3.98e6

For CG31465, how do the results read?
mean viability with MMS: 3.47e6; viability with MMS, replicate 1: 3.95e6

Which result is listed for CheA84a?
mean viability with MMS: 3.54e6; viability with MMS, replicate 1: 4.01e6

What did the screen give for Vang?
mean viability with MMS: 3.67e6; viability with MMS, replicate 1: 4.12e6

What did the screen give for CG18547?
mean viability with MMS: 3.33e6; viability with MMS, replicate 1: 3.86e6

Which result is listed for mam #1?
mean viability with MMS: 2.95e6; viability with MMS, replicate 1: 3.73e6

What did the screen give for mam #2?
mean viability with MMS: 2.54e6; viability with MMS, replicate 1: 3.12e6

What did the screen give for mam #3?
mean viability with MMS: 3.30e6; viability with MMS, replicate 1: 3.84e6

With Cyp4d14, what does the deposit list?
mean viability with MMS: 3.57e6; viability with MMS, replicate 1: 4.08e6

For IKKepsilon, what was measured?
mean viability with MMS: 3.51e6; viability with MMS, replicate 1: 4.00e6

With sNPF-R, what was measured?
mean viability with MMS: 3.46e6; viability with MMS, replicate 1: 3.90e6

For CG13454, what does the deposit list?
mean viability with MMS: 1.77e6; viability with MMS, replicate 1: 3.98e6

With CG13933, what was measured?
mean viability with MMS: 3.46e6; viability with MMS, replicate 1: 3.84e6

With CG7634, what does the deposit list?
mean viability with MMS: 3.64e6; viability with MMS, replicate 1: 4.11e6

Which result is listed for CG12099?
mean viability with MMS: 3.53e6; viability with MMS, replicate 1: 4.00e6

For CG10132, what does the deposit list?
mean viability with MMS: 3.65e6; viability with MMS, replicate 1: 4.00e6

For CG4592, how do the results read?
mean viability with MMS: 3.99e6; viability with MMS, replicate 1: 4.47e6

For wkd, how do the results read?
mean viability with MMS: 3.56e6; viability with MMS, replicate 1: 4.04e6

With CG42784 #1, what was measured?
mean viability with MMS: 3.54e6; viability with MMS, replicate 1: 3.69e6

What is on record for CG42784 #2?
mean viability with MMS: 2.94e6; viability with MMS, replicate 1: 3.54e6

What did the screen give for CG42784 #3?
mean viability with MMS: 3.43e6; viability with MMS, replicate 1: 4.10e6

With CG42784 #4, what does the deposit list?
mean viability with MMS: 3.61e6; viability with MMS, replicate 1: 4.00e6

With CG14200 #1, what does the deposit list?
mean viability with MMS: 2.88e6; viability with MMS, replicate 1: 3.66e6

What did the screen give for CG14200 #2?
mean viability with MMS: 3.07e6; viability with MMS, replicate 1: 3.26e6
